Data taken from ChEMBL document CHEMBL3988442, “University of Dundee, Small-Polar-MMV Screening Library” (2021).

Protein sequences, listed by entry. Tags and fused reporters are not part of them.
UniProt P9WFT3, whole entry: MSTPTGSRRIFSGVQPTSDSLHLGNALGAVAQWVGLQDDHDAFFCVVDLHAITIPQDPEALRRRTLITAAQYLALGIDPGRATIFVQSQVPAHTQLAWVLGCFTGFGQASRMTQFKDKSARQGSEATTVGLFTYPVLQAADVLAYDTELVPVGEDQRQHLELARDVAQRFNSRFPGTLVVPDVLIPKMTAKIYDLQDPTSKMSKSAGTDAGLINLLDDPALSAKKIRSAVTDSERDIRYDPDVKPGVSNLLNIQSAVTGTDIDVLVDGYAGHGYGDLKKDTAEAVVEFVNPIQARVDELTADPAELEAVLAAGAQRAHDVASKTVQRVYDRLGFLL
UniProt P9WNZ1, whole entry: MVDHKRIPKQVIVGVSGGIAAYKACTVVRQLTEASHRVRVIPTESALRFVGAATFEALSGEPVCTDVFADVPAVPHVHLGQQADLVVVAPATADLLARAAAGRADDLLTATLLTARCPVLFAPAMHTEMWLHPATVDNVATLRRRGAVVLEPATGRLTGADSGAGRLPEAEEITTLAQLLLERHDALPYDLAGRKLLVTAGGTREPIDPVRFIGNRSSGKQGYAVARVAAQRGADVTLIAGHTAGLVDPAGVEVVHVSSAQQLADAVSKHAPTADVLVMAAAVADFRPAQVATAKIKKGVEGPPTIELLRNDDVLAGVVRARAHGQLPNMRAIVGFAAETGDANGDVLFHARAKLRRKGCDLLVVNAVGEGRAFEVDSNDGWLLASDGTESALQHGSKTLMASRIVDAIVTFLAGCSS
UniProt P9WPC5, whole entry: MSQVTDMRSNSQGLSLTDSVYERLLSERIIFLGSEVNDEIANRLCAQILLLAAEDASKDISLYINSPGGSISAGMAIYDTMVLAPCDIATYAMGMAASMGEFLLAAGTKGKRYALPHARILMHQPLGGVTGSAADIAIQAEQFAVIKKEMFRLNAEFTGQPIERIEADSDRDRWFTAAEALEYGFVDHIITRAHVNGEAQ
UniProt P9WPC3, whole entry partner: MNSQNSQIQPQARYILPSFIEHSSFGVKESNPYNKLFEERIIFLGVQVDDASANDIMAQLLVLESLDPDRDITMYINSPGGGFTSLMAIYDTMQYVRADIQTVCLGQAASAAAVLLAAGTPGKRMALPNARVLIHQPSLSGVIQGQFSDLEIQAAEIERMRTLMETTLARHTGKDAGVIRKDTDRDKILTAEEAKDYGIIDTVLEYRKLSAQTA

Values are the deposited “Percent Effect”, in %.
The controls that fix the scale are not given in the record; negative values are as filed.
This is an unselected part of the compounds tested.
Two or more numbers in one place are separate tests of the same structure; such repeats can differ widely.
A dash means the value is not listed here; it may have been measured.

MtTrpRS: 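Tryptophan-tRNA ligase, Mycobacterium tuberculosis (UniProt P9WFT3). Enzyme assay of tryptophanyl-tRNA synthetase; the read-out is not stated. Compounds at 10 µM. Higher most likely means stronger inhibition; the record gives no direction and few retests gave an IC50. Of about 65,000 compounds tested this way, about 64 (0.098%) reached 50% or more in at least one test.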
CoaBC: 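Coenzyme A biosynthesis protein CoaBC, Mycobacterium tuberculosis (UniProt P9WNZ1). Enzyme assay of CoaBC with a phosphate dye (Biomol Green) read at 650 nm. Tested at 30 µM. Direction is inferred from only a few compounds that gave an IC50; most scored high, so higher reads as stronger inhibition. Most strong results did not repeat in a second test. Of about 67,000 compounds tested this way, about 40 (0.06%) reached 50% or more in at least one test.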
ClpP1P2: 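ClpP1P2, Mycobacterium tuberculosis (UniProt P9WPC5 and UniProt P9WPC3). Protease assay of ClpP1P2, read by the AMC dye that it sets free. Tested at 50 µM. Higher reads as stronger inhibition, judged from the few compounds that gave an IC50. Most other retested compounds had strongly negative values. About 69,000 compounds were tested under these conditions; 0.015% (about 10) showed 50% or more at least once.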

structure,MtTrpRS,CoaBC,ClpP1P2
Cn1nnc2c(N3CC(C(=O)NCc4cccs4)C3)ncnc21,2.821,-5.216,-4.367
CCn1cc(C(=O)N2CCCC(c3nccs3)C2)cn1 (centres unmarked),-,-0.4854,-13.62
CC(=O)NC[C@H]1OC[C@@H](NC2CCC(F)(F)CC2)[C@@H]1O,-2.504,6.402,-5.25
Cc1ccc([C@@H]2CN(C(=O)c3ccccc3C)C[C@H]2N(C)C)cc1,4.326,-1.277,-8.399
O=C(CCc1cc(O)no1)N1CCCC(COc2ccc(F)cc2)C1 (centres unmarked),0.9479,4.641,-6.048
CCOCCN(CCOCC)c1nc(C)nc2sccc12,-2.294,3.271,2.944
COC(=O)Cc1cccc(NC(=O)Cc2cc(C)[nH]n2)c1,-2.886,0.9756,0.7637
Cc1cc(C[C@@H]2CCC[C@H]2NCc2ccccc2C(F)(F)F)on1,-0.08361,0,0.03342
COc1ccc(CN2CCC(c3cc(O)nc(C)n3)C2)c(OC)c1 (centres unmarked),-,2.184,-5.954
Cc1nc(C(=O)N(C)CC2CC2)nn1-c1ccccc1C(C)C,5.958,14.91,-8.972
Cc1cnn(CC2CCN(CC(O)c3ccc(F)cc3)CC2)c1 (centres unmarked),3.016,-1.613,-5.623
CS(=O)(=O)N1CCC(Oc2ccc(C(=O)NC3CCOC3)cc2Cl)CC1 (centres unmarked),-2.493,2.564,-0.9023
COc1cccc(SCC(=O)N2CCC(N3CCCC3=O)CC2)c1,-1.538,1.229,-9.144
CN(C)[C@@H]1CCN(C(=O)c2ccccn2)[C@H]1Cc1cnn(C)c1,4.691,3.5,-2.856
COc1cccc(N2CCC(CNC(=O)N(C)Cc3ccco3)C2)c1 (centres unmarked),-4,-3.623,3.56
O=C1CCCC2=C1C(c1cccc(F)c1F)Nc1nonc1N2 (centres unmarked),-2.573,2.762,-6.886
CSCC(=O)N1C[C@H]2CC[C@@H]1CN(C1Cc3ccccc3C1)C2,2.199,3.433,-0.05534
CC1CCCN(C(=O)Nc2cccc(CN3CCOC3=O)c2)C1 (centres unmarked),-4.074,-1.02,2.6
COCCN(Cc1ccco1)Cc1nc(-c2ccccc2C)no1,-3.3,-1.463,-12.7
CCOCC1CN(c2ncccn2)Cc2cnn(CC3CCOCC3)c21 (centres unmarked),-1.744,-1.681,-2.029
COc1cc(Oc2ccc(C(F)(F)F)cn2)ccc1CN1CCCC1,-0.149,14.43,-2.909
COC1(CNC(=O)c2cccc(C#N)c2)CCSC1 (centres unmarked),1.336,6.997,-13.5
Cn1c(CO)nnc1CC1CCN(Cc2ccc(C#N)cc2)CC1,-6.256,11.09,-6.216
CNC(=O)c1cccc(CCNc2ccc(C#N)cn2)c1,-2.812,-3.566,3.809
CS(=O)(=O)NC[C@H]1OC[C@@H](NC2CCC(F)(F)CC2)[C@@H]1O,-7.511,-1.104,-2.166
C=C(C)COc1cccc(C(=O)N(C)Cc2cc(CC)no2)c1,-2.107,0,-12.99
Cc1cccc(C(C)NCC2CCS(=O)(=O)CC2)c1 (centres unmarked),-1.63,-5.934,2.406
c1ccc(Cc2noc(CN3CCc4c(ncn4C4CC4)C3)n2)cc1,13.73,0.9126,-1.951
Cc1nc[nH]c1CN1CCN(C(=O)C2(C)CC2)[C@H]2CS(=O)(=O)C[C@H]21,-2.101,1.022,-7.241
O=C1NCc2ccccc2CC12CCN(Cc1ccccc1Cl)CC2,-4.408,2.105,-6.154
Cc1ncsc1CCC(=O)NC1CCN(Cc2cccs2)CC1,-2.894,3.851,-29.64
Cc1ccc(C(=O)Nc2ccc(N3CCCC3)cn2)cc1F,-5.011,8.351,4.803
c1cncc(OC[C@@H]2CCC[C@@]23CN(Cc2nccs2)CCO3)c1,-2.502,0.25,0.8408
O=C(NCc1ccccc1CN1CCOCC1)Nc1nncs1,6.12,-0.5894,7.823
Cc1nnc(CN(C)C(=O)C(CC(C)C)N2CCCCC2=O)n1C (centres unmarked),-1.421,3.212,0.5576
Cc1nc(N)cc(C2CN(C(=O)c3cscn3)CCO2)n1 (centres unmarked),-5.065,16.32,-3.13
O=C(NCCCc1nnc2ccccn12)c1ccccc1C1CCNC1 (centres unmarked),3.268,0.9732,1.915
CC(C)(C)NC(=O)c1cnc2n1CCCC2,-2.549,3.804,-3.749
c1ccc(-n2cc(CNC3CCc4ncnn4C3)cn2)cc1 (centres unmarked),-3.123,-9.115,-12.05
CS(=O)(=O)c1cccc(C(=O)N2CCCC(n3cccn3)C2)c1 (centres unmarked),-7.219,2.632,-9.29
O=C(Cc1ccccc1)N1Cc2nccn2CC(CN2CCCC2)C1 (centres unmarked),-1.564,-1.777,15.08
O=C(NC1CCCCC1)N1C[C@H]2CN(c3cnccn3)C[C@@]2(C(=O)O)C1,2.714,0.3681,-10.88
O=C(NCCSC1CCCC1)c1c(F)cccc1F,-1.687,-9.328,-1.408
COc1cccc(-c2noc(-c3ccc(NCC4CC4)nc3)n2)c1OC,1.421,-3.571,-18.84
N#Cc1ccc(NCCc2n[nH]c(=O)[nH]2)cc1Cl,2.683,-,-4.649
COc1cc(N2C[C@@H]3COC[C@@H](Cc4nnc(C)o4)[C@@H]3C2)ncn1,-,-0.1238,10.01
CCCNC(=O)N1CCc2ccc(S(=O)(=O)N3CCCC3)cc2C1,4.129,-3.23,0.8995
Cc1csc(N2CCN(CC(=O)Nc3c(C)n[nH]c3C)CC2C)n1 (centres unmarked),-2.818,9.106,15.02
Cc1nc(Nc2cnccn2)cc(C2CCCN2)n1 (centres unmarked),8.171,2.283,6.01
CCc1nc(NCCc2c(C)nn(CC)c2C)c2cnn(C)c2n1,4.827,7.732 & 28.93,-2.334
Cc1ccc(C(=O)N2CCC(=O)N(CC3CC3)C(C(C)C)C2)c(=O)[nH]1 (centres unmarked),-2.096,4.176,10.8
CN(Cc1nc2ccsc2c(=O)[nH]1)C[C@@H]1CCCN2CCCC[C@H]12,-2.252,-7.253,0.1436
Fc1cnc(N2CCCn3c(CN4CCOCC4)nnc3C2)nc1,0.9091,-1.932,8.829
O=C1COC2(CCN(C(=O)c3cnccn3)CC2)CN1CC1CC1,8.236,-,14.21
COCC(=O)NC(C)Cc1cccc(Cl)c1 (centres unmarked),-6.34,2.915,-13.04
CC(C)c1ncncc1C(=O)N1CCCN(Cc2cccs2)CC1,-0.8746,11.13,10.53
CCOC(=O)NC(=O)CSC(C)c1ccccc1F (centres unmarked),-5.181,3.321,-3.723
c1cncc(NCCNC2CCSCC2)c1,3.494,-0.6593,-1.118
CS(=O)(=O)NCc1nnc2n1CCN(Cc1nccs1)C2,0.4691,1.25,10.2
CCS(=O)(=O)N1C[C@H]2CCC[C@@]2(COc2ccccn2)C1,0.804,6.595,1.22

7 of the entries, repeated:

structure	MtTrpRS	CoaBC	ClpP1P2
c1cncc(NCCNC2CCSCC2)c1	3.494	-0.6593	-1.118
Cc1ccc(C(=O)Nc2ccc(N3CCCC3)cn2)cc1F	-5.011	8.351	4.803
CC(C)c1ncncc1C(=O)N1CCCN(Cc2cccs2)CC1	-0.8746	11.13	10.53
COc1cc(Oc2ccc(C(F)(F)F)cn2)ccc1CN1CCCC1	-0.149	14.43	-2.909
Cc1nc(N)cc(C2CN(C(=O)c3cscn3)CCO2)n1 (centres unmarked)	-5.065	16.32	-3.13
Cc1nc(C(=O)N(C)CC2CC2)nn1-c1ccccc1C(C)C	5.958	14.91	-8.972
Cc1cnn(CC2CCN(CC(O)c3ccc(F)cc3)CC2)c1 (centres unmarked)	3.016	-1.613	-5.623